Source: article PMC9322787
No constants are given. Whether binding was seen depends on the method and setting. Binding seen in cells or lysates may run through a third protein. Some results given as binding are weak or reduced against the parent protein; the word gives no strength.

The chains behind the UniProt entries cited, without tags or fusion partners.
UniProt P52332: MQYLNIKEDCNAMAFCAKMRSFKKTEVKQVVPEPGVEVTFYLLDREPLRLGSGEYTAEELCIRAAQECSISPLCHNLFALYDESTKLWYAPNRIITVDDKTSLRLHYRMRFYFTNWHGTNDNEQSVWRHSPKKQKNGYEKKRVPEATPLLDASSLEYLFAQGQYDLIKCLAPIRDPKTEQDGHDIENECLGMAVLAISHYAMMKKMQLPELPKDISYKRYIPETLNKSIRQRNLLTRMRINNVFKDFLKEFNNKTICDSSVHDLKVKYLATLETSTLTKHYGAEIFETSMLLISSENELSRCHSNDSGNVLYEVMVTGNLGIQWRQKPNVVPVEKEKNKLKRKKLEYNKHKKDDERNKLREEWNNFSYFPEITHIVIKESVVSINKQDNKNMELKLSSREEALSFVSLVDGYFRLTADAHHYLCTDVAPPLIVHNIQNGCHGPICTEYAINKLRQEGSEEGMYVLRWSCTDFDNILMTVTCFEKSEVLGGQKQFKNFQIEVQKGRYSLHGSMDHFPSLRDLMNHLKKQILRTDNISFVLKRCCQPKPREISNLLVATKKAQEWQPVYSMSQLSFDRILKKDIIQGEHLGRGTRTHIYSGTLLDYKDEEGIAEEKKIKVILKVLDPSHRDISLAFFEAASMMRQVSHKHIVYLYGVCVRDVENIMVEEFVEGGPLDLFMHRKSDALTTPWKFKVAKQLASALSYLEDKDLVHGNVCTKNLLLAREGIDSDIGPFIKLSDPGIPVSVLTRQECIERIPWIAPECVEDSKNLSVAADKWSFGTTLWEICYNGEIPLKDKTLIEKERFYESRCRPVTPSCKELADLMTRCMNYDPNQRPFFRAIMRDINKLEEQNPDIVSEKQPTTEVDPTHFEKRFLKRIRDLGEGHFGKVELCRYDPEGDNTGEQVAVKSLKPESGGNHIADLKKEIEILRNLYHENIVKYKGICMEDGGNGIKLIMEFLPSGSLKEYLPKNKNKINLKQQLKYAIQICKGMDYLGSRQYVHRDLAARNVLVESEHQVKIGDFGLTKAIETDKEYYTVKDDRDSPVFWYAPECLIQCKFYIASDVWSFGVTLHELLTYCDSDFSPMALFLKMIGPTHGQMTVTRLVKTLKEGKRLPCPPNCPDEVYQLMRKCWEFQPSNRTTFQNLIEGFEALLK
UniProt Q04207: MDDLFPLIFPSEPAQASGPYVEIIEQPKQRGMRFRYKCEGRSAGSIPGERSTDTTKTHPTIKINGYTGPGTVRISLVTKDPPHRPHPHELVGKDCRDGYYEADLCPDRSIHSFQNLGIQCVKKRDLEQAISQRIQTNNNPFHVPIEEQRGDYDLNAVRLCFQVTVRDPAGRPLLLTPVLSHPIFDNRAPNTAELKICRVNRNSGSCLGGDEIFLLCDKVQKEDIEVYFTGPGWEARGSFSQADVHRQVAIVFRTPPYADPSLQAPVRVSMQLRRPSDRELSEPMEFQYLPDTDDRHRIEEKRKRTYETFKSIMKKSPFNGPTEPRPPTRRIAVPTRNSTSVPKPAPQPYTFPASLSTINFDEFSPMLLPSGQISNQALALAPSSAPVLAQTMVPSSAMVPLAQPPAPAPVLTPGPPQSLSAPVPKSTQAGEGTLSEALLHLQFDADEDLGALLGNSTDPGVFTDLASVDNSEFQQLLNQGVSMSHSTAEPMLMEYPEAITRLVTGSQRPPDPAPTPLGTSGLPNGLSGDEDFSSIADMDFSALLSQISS
UniProt P42227: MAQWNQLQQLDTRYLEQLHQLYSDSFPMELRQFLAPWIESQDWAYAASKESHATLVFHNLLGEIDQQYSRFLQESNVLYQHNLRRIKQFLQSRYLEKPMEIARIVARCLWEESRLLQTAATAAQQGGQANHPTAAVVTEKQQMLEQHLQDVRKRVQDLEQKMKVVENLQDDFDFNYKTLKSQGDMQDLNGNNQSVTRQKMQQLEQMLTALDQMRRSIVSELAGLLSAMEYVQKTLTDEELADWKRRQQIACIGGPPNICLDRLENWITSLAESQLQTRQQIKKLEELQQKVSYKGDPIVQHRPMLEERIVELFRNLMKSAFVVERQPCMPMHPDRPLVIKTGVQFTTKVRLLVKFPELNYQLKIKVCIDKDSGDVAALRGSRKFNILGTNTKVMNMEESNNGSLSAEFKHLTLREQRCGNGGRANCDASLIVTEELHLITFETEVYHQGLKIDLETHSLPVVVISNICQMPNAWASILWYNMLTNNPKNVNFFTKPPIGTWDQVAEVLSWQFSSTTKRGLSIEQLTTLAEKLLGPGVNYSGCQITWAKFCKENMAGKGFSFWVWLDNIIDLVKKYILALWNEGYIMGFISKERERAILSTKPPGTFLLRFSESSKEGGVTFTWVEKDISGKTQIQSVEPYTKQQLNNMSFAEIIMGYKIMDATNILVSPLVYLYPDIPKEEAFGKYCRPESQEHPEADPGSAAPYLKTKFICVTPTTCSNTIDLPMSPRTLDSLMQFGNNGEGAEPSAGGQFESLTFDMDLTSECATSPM
UniProt Q9Z1E3: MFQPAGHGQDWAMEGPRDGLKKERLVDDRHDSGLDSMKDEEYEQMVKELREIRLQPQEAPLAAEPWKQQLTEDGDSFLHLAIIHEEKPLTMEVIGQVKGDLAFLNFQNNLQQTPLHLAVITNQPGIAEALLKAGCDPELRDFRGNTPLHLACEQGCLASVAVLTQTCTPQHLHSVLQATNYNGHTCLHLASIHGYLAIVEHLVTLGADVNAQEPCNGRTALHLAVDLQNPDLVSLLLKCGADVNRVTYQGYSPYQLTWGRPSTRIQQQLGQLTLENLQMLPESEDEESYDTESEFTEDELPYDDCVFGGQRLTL

What was measured:
[1] = biological target: JAK1 (mouse (endogenous in RAW264.7)) (UniProt P52332); assay: co-IP; precleared whole-cell lysates of RAW264.7 cells (pretreated with hispolon 1 h, then LPS 1 h) incubated overnight at 4 °C with monoclonal anti-JAK1 or anti-NF-κB p65 antibody, G and L agarose beads, washed five times with lysis buffer; Western blot
[2] = biological target: NF-κB p65 (mouse (endogenous in RAW264.7)) (UniProt Q04207); assay: as above

| binding [1] | binding [2] | Substance |
| --- | --- | --- |
| binds | – | STAT3 (from UniProt P42227 1-770) |
| – | binds | phospho-IκBα (from UniProt Q9Z1E3 1-314) |
